{
  "source": "the supplement of paper PMC7125110",
  "parents": {"B1": {"name": "glmS ribozyme (parent)", "chain": "AUAAAAGCGCCAGAACUACAGAAAUGUAGUUGACGAGGAGGAGGUUUAUCGAAUUUUCGGCGGAUGCCUCCAAA"}},
  "note": "± gives the standard error. The uncertainty is large for many entries.",
  "data": [
    {"variants_of": "B1", "test": "KM; higher = weaker cofactor use; RNA array", "conditions": "with glucosamine-6-phosphate", "outline": "(§1)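 A hybridised Cy3 probe tracked barcoded ribozyme variants, transcribed in situ by E. coli RNA polymerase on sequenced MiSeq chips, at 37 °C. The variants received 40 μM to 10 mM glucosamine-6-phosphate in HEPES/KCl/Mg(OAc)2 buffer. kobs came from decay fits and kcat and KM from weighted Michaelis–Menten fits.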", "units": {"KM": "µM"}, "values": [
      {"variant": "AUAAAAGCGCCAGAAGUACAGAAAUGUAGUUGACGUGGAGGAGGUUUAUGGAAUUUUCGGCGGAUGCGUCCAAA", "KM": "90.5 ± 86"},
      {"variant": "AUAAAAGCGCCAGAAGUACAGAAAUGUAGUUGACGAGGGGGAGGUUUAUCGAAUUUUCGGCGGAUGCCUCCAAA", "KM": "3090 ± 1700"},
      {"variant": "AUAAAAGCGCCAGAAGUACAGAAAUGUAGUUGACGAGGAGGAGGUUUAUCGAAUUUUCGGCGGGUGCCUCCAAA", "KM": "2050 ± 1500"},
      {"variant": "AUAAAAGCGCCAGAAGUACAGAAAUGUAGUUGACGAGGAGGAGGUUUAUCGAAUUUUCGGCGGAUGCCUGCAAA", "KM": "100 ± 87"},
      {"variant": "AUAAAAGCGCCAGAAGUACAGAAAUGUAGUUAACGAGGAGGAGGUUUAUCGAAUUUUCGGCGGAUGCUUCCAAA", "KM": "209 ± 170"},
      {"variant": "AUAAAAGCGCCAGAAGUACAGAAAUGUAGUUGACGAGGAAGAGGUUUAUCGAAUUUUCGGCGGAUGCCUCCAAA", "KM": "1140 ± 770"},
      {"variant": "AUAAAAGCGCCAGAAGUACAGAAAUGUAGUUGACGAGGAGGAGGUUUAUCGAAUAUUCGGCGGAUGCCUCCAAA", "KM": "2500 ± 1400"},
      {"variant": "AUAAAAGCGCCAGAAGUACAGAAAUGUAGUUGACGAGGAGGAGGUUUAUCGAAUUCUCGGCGGAUGCCUCCAAA", "KM": "1880 ± 1000"},
      {"variant": "AUAAAAGCGCCAGAAGUACAGAAAUGUAGUUGACGAGGAGGAGGUUUAUCGAAUUUUCGGCGGAAGCCUCCAAA", "KM": "3010 ± 580"},
      {"variant": "AUAAAAGCGCCAGAAUUACAGAAAUGUAGUUGACGAGGAGGAGGUUUAUCGAGUUUUCGGCGGAUGCCUCCAAA", "KM": "1210 ± 760"},
      {"variant": "AUAAAAGCGCCAGAAUUACAGAAAUGUAAUUGACGAGGAGGAGGUUUAUCGAAUUUUCGGCGGAUGCCUCCAAA", "KM": "660 ± 350"},
      {"variant": "AUAAAAGCGCCAGAAUUACAGAAAUGUAGAUGACGAGGAAGAGGUUUAUCGAAUUUUCGGCGGAUGCCUCCAAA", "KM": "1030 ± 380"},
      {"variant": "AUAAAAGCGCCAGAACUACAGAAAUGUAAUUGACGAGGAGGAGGUUUAUCGACUUUUCGGCGGAUGCCUCCAAA", "KM": "1010 ± 570"},
      {"variant": "AUAAAAGCGCCAGAACUACAGAAAUGUAAUUGACGAGGAGGAGGUUUAUCGAUUUUUCGGCGGAUGCCUCCAAA", "KM": "1320 ± 660"},
      {"variant": "AUAAAAGCGCCAGAACUACAGAAAUGUAAUUGACGAGGAGGAGGUUUAUCGAAUUUUCGGCGGAUGCCUUCAAA", "KM": "175 ± 120"},
      {"variant": "AUAAAAGCGCCAGAACUACAGAAAUGUAAUUAACGAGGAGGAGGUUUAUCGAAUUUUCGGCGGAUGCCUCAAAA", "KM": "3640 ± 3500"},
      {"variant": "AUAAAAGCGCCAGAACUACAGAAAUGUAAUUUACGAGGAGGAGGUUUAUCGAAUUUUCGGCGGAUGCCUCCAAA", "KM": "20700 ± 7600"},
      {"variant": "AUAAAAGCGCCAGAACUACAGAAAUGUAAGUGACGAGGAGGAGGUUUAUCGAAUUUUCGGCGGAUGCCUCCAAA", "KM": "2240 ± 1200"},
      {"variant": "AUAAAAGCGCCAGAACUACAGAAAUGUAAUUGACGAGGAGGAGGUGUAUCGAAUUUUCGGCGGAUGCCUCCAAA", "KM": "3300 ± 2100"},
      {"variant": "AUAAAAGCGCCAGAACUACAGAAAUGUAAUUGACGAGGAGGAGGUUUAUCGAAUUCUCGGCGGAUGCCUCCAAA", "KM": "3420 ± 2100"},
      {"variant": "AUAAAAGCGCCAGAACUACAGAAAUGUACUUGACGAGGUGGAGGUUUAUCGAAUUUUCGGCGGAUGCCUCCAAA", "KM": "3800 ± 2000"},
      {"variant": "AUAAAAGCGCCAGAACUACAGAAAUGUACUUGACGAGGAGGAGGUUUAUCGAAUUUUCGGCGGAGGCCUCCAAA", "KM": "4400 ± 1000"},
      {"variant": "AUAAAAGCGCCAGAACUACAGAAAUGUAUUUGACGAGGAGGAGGUUUAUCGCAUUUUCGGCGGAUGCCUCCAAA", "KM": "96.2 ± 94"},
      {"variant": "AUAAAAGCGCCAGAACUACAGAAAUGUAUUUGACGAGGAGGAGGUUUAUCGAAUUUUCGGGGGAUGCCUCCAAA", "KM": "2320 ± 1900"},
      {"variant": "AUAAAAGCGCCAGAACUACAGAAAUGUAUUUGACGAGGAGCAGGUUUAUCGAAGUUUCGGCGGAUGCCUGCAAA", "KM": "2090 ± 1400"},
      {"variant": "AUAAAAGCGCCAGAACUACAGAAAUGUAUGUGACGAGGAGGAGGUUUAUCGAAUUUUCGGCGGAUGCCUCCAAA", "KM": "1780 ± 820"},
      {"variant": "AUAAAAGCGCCAGAACUACAGAAAUGUAUUCGACGAGGAGGAGGUUUAUCGAAUUUUCGGCGGAUGCCUCCAAA", "KM": "3110 ± 1900"},
      {"variant": "AUAAAAGCGCCAGAACUACAGAAAUGUAUUUGACGAGGAGGAGGUUUAUCGAAUUUUCGGCGGACGCCUCCAAA", "KM": "996 ± 960"}
    ]},
    {"variants_of": "B1", "test": "self-cleavage kobs at 40 uM GlcN6P; higher = faster cleavage; RNA array", "conditions": "with glucosamine-6-phosphate", "outline": "as §1", "units": {"self-cleavage kobs at 40 uM GlcN6P": "s⁻¹"}, "values": [
      {"variant": "AUAAAAGCGCCAGAAGUACAGAAAUGUAGUUGACGAGGAAGAGGUUUAUCGAAUUUUCGGCGGAUGCCUCCAAA", "self-cleavage kobs at 40 uM GlcN6P": "3.3e-05 ± 1.9e-05"},
      {"variant": "AUAAAAGCGCCAGAACUACAGAAAUGUAAUUGACGAGGAGGAGGUUUAUCGACUUUUCGGCGGAUGCCUCCAAA", "self-cleavage kobs at 40 uM GlcN6P": "2.87e-05 ± 2.8e-05"},
      {"variant": "AUAAAAGCGCCAGAACUACAGAAAUGUAAUUGACGAGGAGGAGGUGUAUCGAAUUUUCGGCGGAUGCCUCCAAA", "self-cleavage kobs at 40 uM GlcN6P": "4.66e-05 ± 3e-05"}
    ]},
    {"variants_of": "B1", "test": "self-cleavage kobs at 160 uM GlcN6P; higher = faster cleavage; RNA array", "conditions": "with glucosamine-6-phosphate", "outline": "as §1", "units": {"self-cleavage kobs at 160 uM GlcN6P": "s⁻¹"}, "values": [
      {"variant": "AUAAAAGCGCCAGAAGUACAGAAAUGUAGUUGACGAGGAAGAGGUUUAUCGAAUUUUCGGCGGAUGCCUCCAAA", "self-cleavage kobs at 160 uM GlcN6P": "3e-05 ± 2e-05"},
      {"variant": "AUAAAAGCGCCAGAACUACAGAAAUGUACUUGACGAGGAGGAGGUUUAUCGAAUUUUCGGCGGAGGCCUCCAAA", "self-cleavage kobs at 160 uM GlcN6P": "2.4e-05 ± 1.6e-05"},
      {"variant": "AUAAAAGCGCCAGAACUACAGAAAUGUAUUUGACGAGGAGGAGGUUUAUCGAAUUUUCGGCGGACGCCUCCAAA", "self-cleavage kobs at 160 uM GlcN6P": "2.56e-05 ± 1.8e-05"}
    ]},
    {"variants_of": "B1", "test": "self-cleavage kobs at 2500 uM GlcN6P; higher = faster cleavage; RNA array", "conditions": "with glucosamine-6-phosphate", "outline": "as §1", "units": {"self-cleavage kobs at 2500 uM GlcN6P": "s⁻¹"}, "values": [
      {"variant": "AUAAAAGCGCCAGAACUACAGAAAUGUAAUUGACGAGGAGGAGGUUUAUCGAAUUUUCGGCGGAUGCCUUCAAA", "self-cleavage kobs at 2500 uM GlcN6P": "0.00402 ± 0.0029"},
      {"variant": "AUAAAAGCGCCAGAACUACAGAAAUGUAAUUAACGAGGAGGAGGUUUAUCGAAUUUUCGGCGGAUGCCUCAAAA", "self-cleavage kobs at 2500 uM GlcN6P": "7.14e-05 ± 3.9e-05"}
    ]},
    {"variants_of": "B1", "test": "self-cleavage kobs at 640 uM GlcN6P; higher = faster cleavage; RNA array", "conditions": "with glucosamine-6-phosphate", "outline": "as §1", "units": {"self-cleavage kobs at 640 uM GlcN6P": "s⁻¹"}, "values": [
      {"variant": "AUAAAAGCGCCAGAACUACAGAAAUGUAUUUGACGAGGAGGAGGUUUAUCGAAUUUUCGGCGGACGCCUCCAAA", "self-cleavage kobs at 640 uM GlcN6P": "1.47e-05 ± 1.1e-05"}
    ]}
  ]
}
